Measured values from the M2OR odorant receptor database.
The list shows a part of the results. Calls are pooled over several reports, among them a noisy single-well screen.

Columns and labels:
Details in all cases: stereoisomer not certain
O14A2 = tested on: T1, O14A2
T1 sequence (whole entry): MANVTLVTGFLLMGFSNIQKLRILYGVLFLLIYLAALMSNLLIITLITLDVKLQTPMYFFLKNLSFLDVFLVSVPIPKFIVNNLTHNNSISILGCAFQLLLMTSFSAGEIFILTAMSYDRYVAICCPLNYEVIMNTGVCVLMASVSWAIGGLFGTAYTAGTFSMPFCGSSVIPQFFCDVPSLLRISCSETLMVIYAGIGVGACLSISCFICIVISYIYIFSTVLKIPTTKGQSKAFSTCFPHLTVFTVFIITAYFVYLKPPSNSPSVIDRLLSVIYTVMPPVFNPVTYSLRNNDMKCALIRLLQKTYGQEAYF
How it was run: (§1)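 Each receptor–molecule pair is labelled responsive or non-responsive (inactive) according to whether the original authors judged the measured signal statistically different from baseline. The data were taken from the main text and supplementary material of published papers and checked for typos and inconsistencies. Assay methods differed by source, with transient luciferase assays in mammalian cell lines being common.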

O14AG = tested on: T2, O14AG
T2 sequence (whole entry): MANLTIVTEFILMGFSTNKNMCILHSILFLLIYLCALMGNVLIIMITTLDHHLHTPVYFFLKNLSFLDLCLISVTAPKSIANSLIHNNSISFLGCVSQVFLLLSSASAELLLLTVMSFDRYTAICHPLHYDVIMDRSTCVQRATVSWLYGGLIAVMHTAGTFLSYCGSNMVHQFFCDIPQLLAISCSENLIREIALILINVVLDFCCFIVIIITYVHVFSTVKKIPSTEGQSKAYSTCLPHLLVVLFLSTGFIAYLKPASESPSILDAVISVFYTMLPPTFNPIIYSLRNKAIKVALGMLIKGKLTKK
How it was run: as §1

O14CZ = tested on: T3, O14CZ
T3 sequence (whole entry): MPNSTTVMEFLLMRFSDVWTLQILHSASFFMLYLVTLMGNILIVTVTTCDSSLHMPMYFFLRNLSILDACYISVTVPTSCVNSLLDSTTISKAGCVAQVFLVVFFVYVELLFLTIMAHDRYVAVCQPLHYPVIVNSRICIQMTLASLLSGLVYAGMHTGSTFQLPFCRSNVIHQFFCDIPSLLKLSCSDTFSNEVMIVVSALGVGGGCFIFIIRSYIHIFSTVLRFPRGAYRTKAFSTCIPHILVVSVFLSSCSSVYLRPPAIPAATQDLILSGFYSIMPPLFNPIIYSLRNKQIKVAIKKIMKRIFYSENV
How it was run: as §1

O14I1 = tested on: T4, O14I1
T4 sequence (whole entry): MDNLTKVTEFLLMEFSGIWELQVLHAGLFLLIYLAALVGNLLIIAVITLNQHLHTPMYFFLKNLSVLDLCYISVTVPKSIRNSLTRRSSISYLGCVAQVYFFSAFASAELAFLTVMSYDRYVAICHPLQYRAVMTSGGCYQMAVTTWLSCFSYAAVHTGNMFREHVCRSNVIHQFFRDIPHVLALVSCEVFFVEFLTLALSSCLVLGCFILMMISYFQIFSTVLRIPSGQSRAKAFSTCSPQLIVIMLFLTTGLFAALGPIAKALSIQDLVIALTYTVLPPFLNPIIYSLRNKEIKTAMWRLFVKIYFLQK
How it was run: as §1

O14J1 = tested on: T5, O14J1
T5 sequence (whole entry): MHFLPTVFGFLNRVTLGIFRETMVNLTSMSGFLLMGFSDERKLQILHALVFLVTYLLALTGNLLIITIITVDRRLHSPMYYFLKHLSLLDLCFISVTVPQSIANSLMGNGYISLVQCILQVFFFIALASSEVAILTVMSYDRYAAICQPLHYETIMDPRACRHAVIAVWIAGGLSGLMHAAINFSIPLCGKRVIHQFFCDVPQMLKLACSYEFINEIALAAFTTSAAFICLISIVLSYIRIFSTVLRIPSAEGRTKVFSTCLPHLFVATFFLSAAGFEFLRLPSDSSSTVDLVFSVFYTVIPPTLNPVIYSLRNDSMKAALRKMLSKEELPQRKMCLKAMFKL
How it was run: as §1

O14K1 = tested on: T6, O14K1
T6 sequence (whole entry): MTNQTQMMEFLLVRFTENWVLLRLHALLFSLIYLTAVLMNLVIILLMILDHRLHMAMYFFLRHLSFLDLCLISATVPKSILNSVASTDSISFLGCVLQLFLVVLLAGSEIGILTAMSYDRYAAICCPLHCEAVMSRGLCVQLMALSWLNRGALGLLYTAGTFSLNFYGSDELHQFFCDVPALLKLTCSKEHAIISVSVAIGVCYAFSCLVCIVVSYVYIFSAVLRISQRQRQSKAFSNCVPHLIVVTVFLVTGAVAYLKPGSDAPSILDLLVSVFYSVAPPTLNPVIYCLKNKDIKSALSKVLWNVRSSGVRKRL
How it was run: as §1

O14L1 = tested on: T7, O14L1
T7 sequence (whole entry): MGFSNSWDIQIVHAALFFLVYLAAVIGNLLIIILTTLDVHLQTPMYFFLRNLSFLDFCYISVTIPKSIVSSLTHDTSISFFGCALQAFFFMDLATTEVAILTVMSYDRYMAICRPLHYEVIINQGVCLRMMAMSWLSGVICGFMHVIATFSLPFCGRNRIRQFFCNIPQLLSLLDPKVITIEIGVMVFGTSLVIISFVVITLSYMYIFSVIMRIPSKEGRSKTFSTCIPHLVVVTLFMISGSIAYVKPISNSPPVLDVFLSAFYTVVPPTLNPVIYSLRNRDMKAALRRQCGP
How it was run: as §1

O2A14 = tested on: T8, O2A14
T8 sequence (whole entry): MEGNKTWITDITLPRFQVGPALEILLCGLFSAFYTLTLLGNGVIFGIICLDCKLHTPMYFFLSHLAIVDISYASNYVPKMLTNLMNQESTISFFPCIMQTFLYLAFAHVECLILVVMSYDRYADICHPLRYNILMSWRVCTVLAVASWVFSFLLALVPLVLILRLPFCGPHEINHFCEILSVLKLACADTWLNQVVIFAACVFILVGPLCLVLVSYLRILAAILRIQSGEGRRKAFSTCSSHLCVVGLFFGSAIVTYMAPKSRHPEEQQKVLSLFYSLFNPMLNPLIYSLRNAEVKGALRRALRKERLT
How it was run: as §1

O2AE1 = tested on: T9, O2AE1
T9 sequence (whole entry): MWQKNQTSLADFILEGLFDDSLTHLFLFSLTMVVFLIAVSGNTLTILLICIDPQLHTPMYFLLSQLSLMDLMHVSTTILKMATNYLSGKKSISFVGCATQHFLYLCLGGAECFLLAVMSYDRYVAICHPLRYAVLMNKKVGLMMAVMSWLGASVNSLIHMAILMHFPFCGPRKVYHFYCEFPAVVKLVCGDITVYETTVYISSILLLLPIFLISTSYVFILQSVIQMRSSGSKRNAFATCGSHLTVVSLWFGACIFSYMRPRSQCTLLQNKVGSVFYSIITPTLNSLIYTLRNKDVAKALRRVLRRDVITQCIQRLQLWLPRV
How it was run: as §1

O2AG2 = tested on: T10, O2AG2
T10 sequence (whole entry): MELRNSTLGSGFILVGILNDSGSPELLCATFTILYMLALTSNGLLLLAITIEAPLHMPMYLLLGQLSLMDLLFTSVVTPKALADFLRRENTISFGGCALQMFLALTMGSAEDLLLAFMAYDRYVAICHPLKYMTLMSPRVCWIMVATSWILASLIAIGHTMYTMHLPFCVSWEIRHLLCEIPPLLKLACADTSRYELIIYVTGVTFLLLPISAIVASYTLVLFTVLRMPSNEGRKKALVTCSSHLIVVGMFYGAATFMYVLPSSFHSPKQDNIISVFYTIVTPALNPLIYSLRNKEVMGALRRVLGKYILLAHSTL
How it was run: as §1

O2AJ1 = tested on: T11, O2AJ1
T11 sequence (whole entry): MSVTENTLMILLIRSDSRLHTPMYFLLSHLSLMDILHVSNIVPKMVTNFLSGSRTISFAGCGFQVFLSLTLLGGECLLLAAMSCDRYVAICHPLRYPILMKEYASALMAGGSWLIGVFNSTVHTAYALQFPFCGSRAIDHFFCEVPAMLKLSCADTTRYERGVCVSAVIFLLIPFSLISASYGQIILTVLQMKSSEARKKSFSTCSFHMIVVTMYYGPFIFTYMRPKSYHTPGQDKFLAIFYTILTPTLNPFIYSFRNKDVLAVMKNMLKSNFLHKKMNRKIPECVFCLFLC
How it was run: as §1

O2AK2 = tested on: T12, O2AK2
T12 sequence (whole entry): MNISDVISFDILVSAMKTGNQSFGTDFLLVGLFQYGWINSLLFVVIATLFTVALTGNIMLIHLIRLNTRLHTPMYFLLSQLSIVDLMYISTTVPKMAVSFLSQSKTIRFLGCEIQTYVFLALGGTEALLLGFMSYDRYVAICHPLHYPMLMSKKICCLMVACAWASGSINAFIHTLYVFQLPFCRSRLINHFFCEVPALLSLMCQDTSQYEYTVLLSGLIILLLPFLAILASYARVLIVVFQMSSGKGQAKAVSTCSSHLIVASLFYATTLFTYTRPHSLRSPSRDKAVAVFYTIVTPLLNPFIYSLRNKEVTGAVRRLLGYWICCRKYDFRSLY
How it was run: as §1
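Note: active if original authors judged signal statistically different from baseline.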

Compound	odorant receptor agonist call (O14A2)	odorant receptor agonist call (O14AG)	odorant receptor agonist call (O14CZ)	odorant receptor agonist call (O14I1)	odorant receptor agonist call (O14J1)	odorant receptor agonist call (O14K1)	odorant receptor agonist call (O14L1)	odorant receptor agonist call (O2A14)	odorant receptor agonist call (O2AE1)	odorant receptor agonist call (O2AG2)	odorant receptor agonist call (O2AJ1)	odorant receptor agonist call (O2AK2)
O=CCc1ccccc1	inactive	inactive	inactive	inactive	inactive	inactive	inactive	inactive	inactive	inactive	inactive	inactive
CC=Cc1ccc(O)c(OC)c1	inactive	inactive	inactive	inactive	active	inactive	inactive	inactive	inactive	inactive	inactive	inactive
COc1cc(C)ccc1O	inactive	inactive	inactive	inactive	inactive	inactive	inactive	inactive	inactive	inactive	inactive	inactive
CC(C)C=O	inactive	inactive	inactive	inactive	inactive	inactive	inactive	inactive	inactive	inactive	inactive	inactive
CC12C=CCC1C1CCC3CC(=O)CCC3(C)C1CC2 (centres undefined)	inactive	inactive	inactive	inactive	inactive	inactive	inactive	inactive	inactive	inactive	inactive	inactive
CCCCCCCC=O	inactive	inactive	inactive	inactive	inactive	inactive	inactive	inactive	inactive	inactive	inactive	inactive
CCCCCOC(C)=O	inactive	inactive	inactive	inactive	inactive	inactive	inactive	–	active	inactive	inactive	inactive
CCC1(O)C2(C)CCC(C2)C1(C)C (centres undefined)	inactive	inactive	inactive	inactive	inactive	inactive	inactive	inactive	inactive	inactive	inactive	inactive
CC(C)CC(=O)O	inactive	inactive	inactive	inactive	inactive	inactive	inactive	inactive	inactive	inactive	inactive	inactive
CC(=O)C(C)=O	inactive	inactive	inactive	inactive	inactive	inactive	inactive	inactive	inactive	inactive	inactive	inactive
c1ccc(Oc2ccccc2)cc1	inactive	inactive	inactive	inactive	inactive	inactive	inactive	inactive	inactive	inactive	inactive	inactive
COc1ccccc1O	inactive	inactive	inactive	inactive	inactive	inactive	inactive	inactive	inactive	inactive	inactive	inactive
C=CCSCC=C	inactive	inactive	inactive	inactive	inactive	inactive	inactive	inactive	inactive	inactive	inactive	inactive
COC(=O)c1ccccc1O	inactive	inactive	inactive	inactive	inactive	inactive	inactive	inactive	inactive	inactive	inactive	inactive
COC(=O)c1ccccc1	inactive	inactive	inactive	inactive	inactive	inactive	inactive	–	inactive	inactive	inactive	inactive
CC12CCC(C1)C(C)(C)C2=O (centres undefined)	inactive	inactive	inactive	inactive	inactive	inactive	inactive	inactive	inactive	inactive	inactive	inactive
CCCC(=O)O	inactive	inactive	inactive	inactive	inactive	inactive	inactive	inactive	inactive	inactive	inactive	inactive
CC12CCC(CC1)C(C)(C)O2	inactive	inactive	inactive	inactive	inactive	inactive	inactive	inactive	inactive	inactive	inactive	inactive
CC1=NC(C)SC1C (centres undefined)	inactive	inactive	inactive	inactive	inactive	inactive	inactive	–	inactive	inactive	inactive	inactive
CCCCCCCC=CC=O	active	inactive	active	inactive	inactive	active	active	inactive	inactive	inactive	inactive	inactive
CCCCCC(C)=O	active	inactive	inactive	inactive	inactive	inactive	inactive	–	inactive	inactive	inactive	inactive
CC(=O)c1ccccc1	active	inactive	inactive	inactive	active	inactive	inactive	–	inactive	inactive	inactive	inactive
CC1CCC(C(C)C)C(O)C1 (centres undefined)	inactive	inactive	inactive	active	inactive	inactive	inactive	active	inactive	active	inactive	inactive
O=C1CCCCC1	inactive	inactive	inactive	inactive	inactive	inactive	inactive	–	inactive	inactive	inactive	inactive
CC1=CCC(C(C)(C)O)CC1 (centres undefined)	inactive	inactive	inactive	inactive	inactive	inactive	inactive	inactive	inactive	inactive	inactive	inactive

Quoted at random: 2 records from the list
Compound	odorant receptor agonist call (O14A2)	odorant receptor agonist call (O14AG)	odorant receptor agonist call (O14CZ)	odorant receptor agonist call (O14I1)	odorant receptor agonist call (O14J1)	odorant receptor agonist call (O14K1)	odorant receptor agonist call (O14L1)	odorant receptor agonist call (O2A14)	odorant receptor agonist call (O2AE1)	odorant receptor agonist call (O2AG2)	odorant receptor agonist call (O2AJ1)	odorant receptor agonist call (O2AK2)
CC(=O)C(C)=O	inactive	inactive	inactive	inactive	inactive	inactive	inactive	inactive	inactive	inactive	inactive	inactive
O=C1CCCCC1	inactive	inactive	inactive	inactive	inactive	inactive	inactive	–	inactive	inactive	inactive	inactive
